Results reported in PMC13399975.
These are yes or no findings as the source states them, for the method shown. In cells and extracts the contact can be indirect. Sequences can lack the tags named with a protein.

Target: T1, WIPI1^HA (WIPI1 with a C-terminal HA tag) (human) (UniProt Q5MNZ9)
T1 sequence: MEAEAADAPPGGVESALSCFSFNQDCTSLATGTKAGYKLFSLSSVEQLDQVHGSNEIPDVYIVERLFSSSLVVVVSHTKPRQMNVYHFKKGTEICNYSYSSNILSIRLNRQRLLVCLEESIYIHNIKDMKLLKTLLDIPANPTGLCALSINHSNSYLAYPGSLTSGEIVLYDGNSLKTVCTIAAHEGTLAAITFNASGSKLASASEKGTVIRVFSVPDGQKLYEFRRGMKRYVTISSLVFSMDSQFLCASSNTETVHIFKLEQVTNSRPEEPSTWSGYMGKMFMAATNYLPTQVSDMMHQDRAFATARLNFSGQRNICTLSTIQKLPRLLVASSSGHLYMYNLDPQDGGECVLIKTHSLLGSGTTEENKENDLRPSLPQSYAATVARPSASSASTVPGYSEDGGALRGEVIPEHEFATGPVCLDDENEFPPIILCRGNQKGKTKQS
Test: co-IP; co-immunoadsorption: clarified Triton X-100 extracts (150 mM NaCl, 2 mM EDTA, 40 mM HEPES-NaOH pH 7.4, 1% Triton X-100, phosphatase and protease inhibitors) of HK2 cells stably expressing the HA-tagged PROPPIN, incubated 2 hr at 4°C with anti-HA beads, washed three times; adsorbed endogenous proteins shown by western blot; parental HK2 cells without HA tag as control

binding: no binding
Substance: VPS26C (Retriever subunit) (from UniProt O14972 1-297)
